What all share (experiment): co-IP; HEK293T cells co-transfected, harvested 36-48 h later; lysates in Tris-buffered saline pH 7.4 (50 mM Tris-HCl, 150 mM NaCl, 1% NP-40, 1% sodium deoxycholate, 2 mM EDTA), 4°C; immunoprecipitation with HA monoclonal antibodies coupled to agarose beads for 2 h, 4-6 washes, immunoblotting
A general note: In western blotting, separated proteins are transferred to a membrane and probed.

Amino acid sequences for entries named in this document (tags omitted). Residues count along the entry.
UniProt P19490, residues 19-907: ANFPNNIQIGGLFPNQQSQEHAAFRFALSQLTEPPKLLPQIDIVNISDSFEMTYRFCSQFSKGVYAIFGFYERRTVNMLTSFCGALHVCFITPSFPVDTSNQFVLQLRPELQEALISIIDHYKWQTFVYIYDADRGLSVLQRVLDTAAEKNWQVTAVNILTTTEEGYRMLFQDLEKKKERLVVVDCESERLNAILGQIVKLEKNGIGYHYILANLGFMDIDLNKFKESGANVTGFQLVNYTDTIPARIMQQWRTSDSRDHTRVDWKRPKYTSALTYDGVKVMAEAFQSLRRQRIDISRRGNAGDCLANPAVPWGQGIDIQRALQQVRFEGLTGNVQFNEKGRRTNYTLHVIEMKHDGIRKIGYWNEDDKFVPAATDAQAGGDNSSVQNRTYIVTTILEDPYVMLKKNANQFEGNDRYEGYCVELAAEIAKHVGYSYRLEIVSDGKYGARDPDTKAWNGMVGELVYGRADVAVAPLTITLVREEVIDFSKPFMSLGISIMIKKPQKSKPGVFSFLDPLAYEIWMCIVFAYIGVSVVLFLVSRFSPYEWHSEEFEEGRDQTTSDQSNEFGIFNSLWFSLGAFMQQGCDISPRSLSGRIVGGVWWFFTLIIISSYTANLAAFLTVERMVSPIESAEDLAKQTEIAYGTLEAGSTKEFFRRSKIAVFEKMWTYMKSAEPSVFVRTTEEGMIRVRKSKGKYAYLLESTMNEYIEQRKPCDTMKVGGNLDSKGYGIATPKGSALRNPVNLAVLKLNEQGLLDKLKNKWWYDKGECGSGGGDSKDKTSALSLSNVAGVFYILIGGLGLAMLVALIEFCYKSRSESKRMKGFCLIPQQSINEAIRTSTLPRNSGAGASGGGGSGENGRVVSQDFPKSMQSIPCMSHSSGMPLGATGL
UniProt P19491, residues 22-883: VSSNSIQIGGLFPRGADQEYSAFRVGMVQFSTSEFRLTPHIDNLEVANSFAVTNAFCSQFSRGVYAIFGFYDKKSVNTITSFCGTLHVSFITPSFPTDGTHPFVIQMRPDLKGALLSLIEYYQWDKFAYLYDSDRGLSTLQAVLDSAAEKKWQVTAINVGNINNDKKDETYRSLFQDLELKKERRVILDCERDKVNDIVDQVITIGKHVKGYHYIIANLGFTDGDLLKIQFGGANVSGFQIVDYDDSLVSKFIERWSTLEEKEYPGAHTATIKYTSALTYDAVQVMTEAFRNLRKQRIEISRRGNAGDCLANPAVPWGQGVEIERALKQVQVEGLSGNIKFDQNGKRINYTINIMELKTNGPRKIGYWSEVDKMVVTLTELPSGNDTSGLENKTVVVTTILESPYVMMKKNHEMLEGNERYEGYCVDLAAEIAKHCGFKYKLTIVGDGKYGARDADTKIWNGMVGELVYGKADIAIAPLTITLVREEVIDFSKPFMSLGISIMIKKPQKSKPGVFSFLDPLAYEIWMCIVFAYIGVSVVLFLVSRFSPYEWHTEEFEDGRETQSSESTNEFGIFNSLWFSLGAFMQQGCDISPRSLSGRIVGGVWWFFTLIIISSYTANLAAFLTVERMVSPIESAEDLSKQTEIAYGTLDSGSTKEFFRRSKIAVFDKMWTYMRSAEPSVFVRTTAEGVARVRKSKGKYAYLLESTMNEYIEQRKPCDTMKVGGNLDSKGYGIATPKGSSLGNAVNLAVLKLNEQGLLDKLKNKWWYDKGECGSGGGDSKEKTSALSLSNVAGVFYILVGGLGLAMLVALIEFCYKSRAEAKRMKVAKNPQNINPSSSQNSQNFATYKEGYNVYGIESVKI
UniProt P42260, residues 32-908: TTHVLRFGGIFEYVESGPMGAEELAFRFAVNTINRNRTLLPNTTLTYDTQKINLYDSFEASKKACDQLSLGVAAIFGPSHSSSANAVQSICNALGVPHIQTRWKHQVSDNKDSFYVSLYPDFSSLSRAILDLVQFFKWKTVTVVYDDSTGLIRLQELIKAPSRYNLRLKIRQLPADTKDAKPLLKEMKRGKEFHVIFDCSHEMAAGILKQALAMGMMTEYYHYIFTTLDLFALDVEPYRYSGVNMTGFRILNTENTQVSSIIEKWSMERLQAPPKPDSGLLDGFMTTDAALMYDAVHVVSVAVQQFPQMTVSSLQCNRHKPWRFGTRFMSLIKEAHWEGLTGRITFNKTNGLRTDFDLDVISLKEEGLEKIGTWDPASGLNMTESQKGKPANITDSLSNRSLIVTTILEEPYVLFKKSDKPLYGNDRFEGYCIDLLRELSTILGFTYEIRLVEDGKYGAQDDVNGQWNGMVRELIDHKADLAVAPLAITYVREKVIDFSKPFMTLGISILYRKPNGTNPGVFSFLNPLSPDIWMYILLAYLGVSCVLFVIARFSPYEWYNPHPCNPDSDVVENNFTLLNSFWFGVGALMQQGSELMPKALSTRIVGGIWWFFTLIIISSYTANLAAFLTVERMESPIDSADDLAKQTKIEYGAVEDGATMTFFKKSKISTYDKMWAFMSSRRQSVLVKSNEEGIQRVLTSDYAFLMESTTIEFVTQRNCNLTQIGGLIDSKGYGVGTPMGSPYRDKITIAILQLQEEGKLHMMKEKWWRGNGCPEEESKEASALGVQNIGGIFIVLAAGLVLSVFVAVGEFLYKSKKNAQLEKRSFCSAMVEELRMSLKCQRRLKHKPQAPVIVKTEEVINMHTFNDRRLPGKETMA

Experiment [1] deals with T1, HA-Clmp (full-length human Clmp, CXADR-like membrane protein) (human) (UniProt Q9H6B4).
T1 sequence: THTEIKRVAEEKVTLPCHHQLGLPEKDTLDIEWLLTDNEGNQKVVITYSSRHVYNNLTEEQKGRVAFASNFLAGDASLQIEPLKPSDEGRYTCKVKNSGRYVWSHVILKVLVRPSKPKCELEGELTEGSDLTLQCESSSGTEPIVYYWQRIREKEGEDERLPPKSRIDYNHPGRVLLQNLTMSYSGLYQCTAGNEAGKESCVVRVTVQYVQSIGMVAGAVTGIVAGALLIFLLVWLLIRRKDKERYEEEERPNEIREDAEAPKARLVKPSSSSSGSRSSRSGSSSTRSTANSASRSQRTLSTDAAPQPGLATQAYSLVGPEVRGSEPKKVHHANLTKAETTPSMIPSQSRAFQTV

Experiment [2] concerns the target T2, Clmp ECD-TM (HA-tagged deletion variant of human Clmp lacking aa 317-373) (human) (UniProt Q9H6B4).
T2 sequence: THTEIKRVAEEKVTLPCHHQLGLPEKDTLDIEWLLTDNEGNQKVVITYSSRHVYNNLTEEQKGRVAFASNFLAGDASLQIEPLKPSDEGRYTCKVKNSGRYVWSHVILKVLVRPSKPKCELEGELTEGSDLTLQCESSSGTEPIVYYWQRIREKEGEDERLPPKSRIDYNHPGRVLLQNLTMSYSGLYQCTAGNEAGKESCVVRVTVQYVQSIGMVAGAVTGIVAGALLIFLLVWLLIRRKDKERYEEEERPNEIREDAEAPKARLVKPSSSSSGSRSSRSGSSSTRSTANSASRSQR

Experiment [3] has as its target T1, HA-Clmp (full-length human Clmp, CXADR-like membrane protein) (human). The source holds these as a separate data set.
In experiment [4] the target is T2, Clmp ECD-TM (HA-tagged deletion variant of human Clmp lacking aa 317-373) (human). The source holds these as a separate data set.

Where two headings read alike, the source gives them in different places. Results are given in words; binding and its absence hold for the method and conditions named. Binding seen in cells or lysates may run through a third protein. Some results given as binding are weak or reduced against the parent protein; the word gives no strength. Tags and fused reporters may be left off the sequences shown.

Regarding “GluA1 subunit of AMPA receptors (from UniProt P19490 19-907)”, the binding result in experiment [1] and in experiment [2] was “binds” throughout.

Turning to “GluA2 subunit of AMPA receptors (from UniProt P19491 22-883)”, the binding result in experiment [1] and in experiment [2] was “binds” throughout.

With “GluK2 subunit of kainate receptors (from UniProt P42260 32-908)”, the binding entry in experiment [1] and in experiment [2] was “binds” in each case.

B1: GluK5 subunit of kainate receptors (receptor, UniProt Q63273 15-979)
chain: NPSCQVLSSLRMAAILDDQTVCGRGERLALALAREQINGIIEVPAKARVEVDIFELQRDSQYETTDTMCQILPKGVVSVLGPSSSPASASTVSHICGEKEIPHIKVGPEETPRLQYLRFASVSLYPSNEDVSLAVSRILKSFNYPSASLICAKAECLLRLEELVRGFLISKETLSVRMLDDSRDPTPLLKEIRDDKVSTIIIDANASISHLVLRKASELGMTSAFYKYILTTMDFPILHLDGIVEDSSNILGFSMFNTSHPFYPEFVRSLNMSWRENCEASTYPGPALSAALMFDAVHVVVSAVRELNRSQEIGVKPLACTSANIWPHGTSLMNYLRMVEYDGLTGRVEFNSKGQRTNYTLRILEKSRQGHREIGVWYSNRTLAMNATTLDINLSQTLANKTLVVTTILENPYVMRRPNFQALSGNERFEGFCVDMLRELAELLRFRYRLRLVEDGLYGAPEPNGSWTGMVGELINRKADLAVAAFTITAEREKVIDFSKPFMTLGISILYRVHMGRKPGYFSFLDPFSPAVWLFMLLAYLAVSCVLFLAARLSPYEWYNPHPCLRARPHILENQYTLGNSLWFPVGGFMQQGSEIMPRALSTRCVSGVWWAFTLIIISSYTANLAAFLTVQRMEVPVESADDLADQTNIEYGTIHAGSTMTFFQNSRYQTYQRMWNYMQSKQPSVFVKSTEEGIARVLNSRYAFLLESTMNEYHRRLNCNLTQIGGLLDTKGYGIGMPLGSPFRDEITLAILQLQENNRLEILKRKWWEGGRCPKEEDHRAKGLGMENIGGIFVVLICGLIIAVFVAVMEFIWSTRRSAESEEVSVCQEMLQELRHAVSCRKTSRSRRRRRPGGPSRALLSLRAVREMRLSNGKLYSAGAGGDAGAHGGPQRLLDDPGPPGGPRPQAPTPCTHVRVCQECRRIQALRASGAGAPPRGLGTPAEATSPPRPRPGPTGPRELTEHE
Consider B1, for which the binding entry in experiment [3] and in experiment [4] was “binds” in each case.
